The values that follow come from PubChem BioAssay AID330 (DTP/NCI, 2004).

The list shows only some results of the screen, not a fair sample: it is rich in T/C values a quarter to a half above the control, in often repeated tests (any T/C) and in doses without a T/C. Further doses and runs are listed elsewhere. T/C: endpoint of the treated group in % of that of the vehicle group. Some entries give survivors of the animals treated and no T/C: the source files T/C as zero there, which appears to mark a toxic dose or a test without result, not a measured value. Some doses without a T/C left all or most animals alive at the check, yet need not have been tolerated: survival well below the control is almost never listed, so the zero probably covers shortened survival too. Survivors were counted at the toxicity check, usually on the fifth day, unless a day is given; later deaths do not show. Schedule codes are those of the source, taken here to give the interval after Q, in days (D) or hours (H), and the number of doses after X. Some entries were tested several times; their values stand side by side, smallest first. Some schedules carry Z or #; the key to these is not given. Some molecules as drawn cover several salts, stereoisomers or complexes of the source; a dose is that of the sample tested. Where survival is the endpoint, the PubChem record calls one and a half times the control and up active, and a quarter to a half above the control has no call in these data; cut-offs in other NCI protocols can differ. Some T/C values carry the count of animals alive at the toxicity check (mostly the fifth day); without a count, all were alive then.

This assay relates to P388 leukemia ip, CD2F1 mice, survival T/C. Nature of the assay: NCI In Vivo Anticancer Drug Screen. Data for tumor model P388 Leukemia (intraperitoneal) in CD2F1 (CDF1) mice. The conditions noted are these: T/C endpoint: median survival time, higher T/C = longer survival.
Setting [1] is: dose: 50.0 mg/kg/injection, schedule: Q01DX005 (ip), vehicle: Klucel (hydroxypropylcellulose) (HPC).
The mark [2] stands for this setting: dose: 100.0 mg/kg/injection, schedule: Q01DX005 (ip), vehicle: Klucel (hydroxypropylcellulose) (HPC).
The mark [3] stands for this setting: dose: 200.0 mg/kg/injection, schedule: Q01DX005 (ip), vehicle: Klucel (hydroxypropylcellulose) (HPC).
Setting [4] is: dose: 400.0 mg/kg/injection, schedule: Q01DX009 (ip), vehicle: saline.
[5] abbreviates: dose: 200.0 mg/kg/injection, schedule: Q01DX009 (ip), vehicle: Klucel (hydroxypropylcellulose) (HPC).
[6] abbreviates: dose: 50.0 mg/kg/injection, schedule: Q01DX009 (ip), vehicle: Klucel (hydroxypropylcellulose) (HPC).
Setting [7] is: dose: 100.0 mg/kg/injection, schedule: Q01DX009 (ip), vehicle: saline with Tween-80.
The mark [8] stands for this setting: dose: 100.0 mg/kg/injection, schedule: Q01DX009 (ip), vehicle: Klucel (hydroxypropylcellulose) (HPC).
Setting [9] is: dose: 400.0 mg/kg/injection, schedule: Q04DX003 (ip), vehicle: saline with Tween-80.

For the molecule `C[n+]1cc(-c2ccccc2)cc(-c2ccccc2)c1`, the survivor count reads like this: (dose: 25.0 mg/kg/injection, schedule: Q01DX005 (ip), vehicle: Klucel (hydroxypropylcellulose) (HPC)) 0 of 6; (dose: 25.0 mg/kg/injection, schedule: Q01DX005 (ip), vehicle: saline) 2 of 6; under setting [1], 0 of 6; (dose: 50.0 mg/kg/injection, schedule: Q01DX005 (ip), vehicle: saline with Tween-80) 0 of 6; under setting [2], 0 of 6; (dose: 100.0 mg/kg/injection, schedule: Q01DX005 (ip), vehicle: saline with Tween-80) 0 of 6. In addition, the survivor count is reported as 0 of 6 under setting [3] and 0 of 6 (dose: 200.0 mg/kg/injection, schedule: Q01DX005 (ip), vehicle: saline with Tween-80).

On to `CC1(C)N=C(N)N=C(N)N1c1ccc(CCCCc2ccc(Cl)cc2Cl)cc1`, for which the T/C runs as follows: (dose: 4.0 mg/kg/injection, schedule: Q01DX009 (ip), vehicle: saline sonified) 136 % of control; (dose: 6.0 mg/kg/injection, schedule: Q01DX009 (ip), vehicle: saline sonified) 140 % of control; (dose: 6.25 mg/kg/injection, schedule: Q01DX009 (ip), vehicle: saline with Tween-80) 127 % of control; (dose: 9.0 mg/kg/injection, schedule: Q01DX009 (ip), vehicle: saline sonified) 140 % of control [5 of 6 alive].

With `O=c1[nH]c(CN2CCCCC2)ccc1O`, under setting [4], the survivor count was 0 of 6.

For the molecule `N=[N+]=CC(=O)CC(N)C(=O)O` (stereo not drawn), the T/C was 126 % of control (dose: 200.0 mg/kg/injection, schedule: Q01DX009 (ip), vehicle: saline) and 126 % of control under setting [4].

On to `C=C(C(=O)c1ccccc1C(=O)O)c1cccc(OC)c1`, for which, under “dose: 100.0 mg/kg/injection, schedule: Q04DX002 (ip), vehicle: saline with Tween-80”, the T/C is 130 % of control [5 of 6 alive]. For the same molecule, the survivor count (dose: 200.0 mg/kg/injection, schedule: Q04DX002 (ip), vehicle: saline with Tween-80) is 0 of 6 and the survivor count (dose: 400.0 mg/kg/injection, schedule: Q04DX002 (ip), vehicle: saline with Tween-80) is 0 of 6.

With `C1=C[N-]c2c3c(ccc2=C1)=CC=C[N-]3.C1=C[N-]c2c3c(ccc2=C1)=CC=C[N-]3.O=S(=O)(O)O.[Cu+2]`, the survivor count is on record as 6 of 6 (dose: 6.25 mg/kg/injection, schedule: Q04DX002 (ip), vehicle: Klucel (hydroxypropylcellulose) (HPC)); 5 of 6 (dose: 12.5 mg/kg/injection, schedule: Q04DX002 (ip), vehicle: Klucel (hydroxypropylcellulose) (HPC)); 2 of 6 (dose: 25.0 mg/kg/injection, schedule: Q04DX002 (ip), vehicle: Klucel (hydroxypropylcellulose) (HPC)); 0 of 6 (dose: 50.0 mg/kg/injection, schedule: Q04DX002 (ip), vehicle: Klucel (hydroxypropylcellulose) (HPC)); 0 of 6 (dose: 100.0 mg/kg/injection, schedule: Q04DX002 (ip), vehicle: Klucel (hydroxypropylcellulose) (HPC)); 0 of 6 (dose: 200.0 mg/kg/injection, schedule: Q04DX002 (ip), vehicle: Klucel (hydroxypropylcellulose) (HPC)). Further, under “dose: 400.0 mg/kg/injection, schedule: Q04DX002 (ip), vehicle: Klucel (hydroxypropylcellulose) (HPC)”, the survivor count was 0 of 6.

For the molecule `CC1(c2ccc(N)cc2)NC(=O)NC1=O` (stereo not drawn), the survivor count under setting [5] was 5 of 6.

Consider `CCCCc1ccc(-n2c(C)c(COC(=O)NC)c(COC(=O)NC)c2C)cc1`, for which, under setting [6], the survivor count is 4 of 6 and 5 of 6.

Take `CCc1cccc2c(NCCCCNc3c4ccccc4nc4c(CC)cccc34)c3ccccc3nc12`: the survivor count was 4 of 6 (dose: 10.0 mg/kg/injection, schedule: Q## X009 (ip), vehicle: lactic acid) and 1 of 6 (dose: 20.0 mg/kg/injection, schedule: Q## X009 (ip), vehicle: lactic acid).

In the case of `Nc1cc2c3c(cccc3c1O)CC2`, the survivor count runs as follows: under setting [1], 2 of 5; under setting [2], 0 of 5; under setting [3], 0 of 5.

Take `Cc1cc(C(C)(CC(C)C)c2ccc(O)c(C)c2)ccc1O`: under setting [7], the survivor count was 4 of 6.

As to `O=[N+]([O-])c1ccc([S][Pb]([c]2ccccc2)([c]2ccccc2)[c]2ccccc2)cc1`, the survivor count is, setting by setting: under setting [6], 5 of 6; under setting [8], 1 of 6; under setting [5], 0 of 6.

For `O=C(O)C(CSC(c1ccccc1)(c1ccccc1)c1ccccc1)N=Cc1ccccc1O` (stereo not drawn), for the setting “dose: 66.0 mg/kg/injection, schedule: Q04DX003 (ip), vehicle: saline with Tween-80”, the T/C is 136 % of control. For the same molecule, the survivor count under setting [9] is recorded as 3 of 6.

As for `c1cc2c3c(c1)CCC3CCC2` (stereo not drawn), the survivor count is recorded as 6 of 6 (dose: 200.0 mg/kg/injection, schedule: Q01DX009 (ip), vehicle: saline with Tween-80) and 0 of 6 (dose: 400.0 mg/kg/injection, schedule: Q01DX009 (ip), vehicle: saline with Tween-80).

`Cc1nc2oc(=O)cc(C)c2c(=O)[nH]1`: the survivor count (dose: 240.0 mg/kg/injection, schedule: Q01DX005 (ip), vehicle: Klucel (hydroxypropylcellulose) (HPC)) was 0 of 6.

Take `COC(=O)c1ccccc1NC(=O)N1CC1`: the survivor count (dose: 200.0 mg/kg/injection, schedule: Q01DX005 (ip), vehicle: DMSO) is reported as 5 of 6.

With `FC(F)(F)c1ccc2cc(C3(C4CCNCC4)CCCO3)c3ccc(C(F)(F)F)cc3c2c1` (stereo not drawn), the survivor count reads like this: (dose: 50.0 mg/kg/injection, schedule: Q01DX009 (ip), vehicle: distilled water + Tween-80) 2 of 6; (dose: 100.0 mg/kg/injection, schedule: Q01DX009 (ip), vehicle: distilled water + Tween-80) 0 of 6; (dose: 200.0 mg/kg/injection, schedule: Q01DX009 (ip), vehicle: distilled water + Tween-80) 0 of 6.

As for `COc1cc(Cc2nccc3cc(OC)c(OC)cc23)c(C(C)=O)cc1OC`, the T/C (dose: 6.25 mg/kg/injection, schedule: Q01DX009 (ip), vehicle: saline sonified) is 133 % of control. Moreover, the survivor count (dose: 25.0 mg/kg/injection, schedule: Q01DX009 (ip), vehicle: saline with Tween-80) is listed as 6 of 6; the survivor count (dose: 50.0 mg/kg/injection, schedule: Q01DX009 (ip), vehicle: saline with Tween-80) is on record as 5 of 6; the survivor count under setting [8] is listed as 3 of 6; the survivor count under setting [7] was 0 of 6; the survivor count (dose: 200.0 mg/kg/injection, schedule: Q04DX003 (ip), vehicle: saline with Tween-80) is on record as 1 of 6; the survivor count under setting [9] is 0 of 6.

`COc1ccc(CCNc2ccc(NCCc3ccc(OC)c(OC)c3)c3c2C(=O)c2ccccc2C3=O)cc1OC`: the survivor count (dose: 100.0 mg/kg/injection, schedule: Q01DX009 (ip), vehicle: other) is given as 6 of 6.

For `C/C(=C\C1C/C(=C/CCc2ccoc2)C(=O)O1)CCCc1ccoc1` (stereo not drawn), the survivor count (dose: 12.5 mg/kg/injection, schedule: Q01DX009 (ip), vehicle: saline + alcohol) is recorded as 6 of 6.

In the case of `CCCCCCC[CH2][Sn]([S][Sn]([CH2]CCCCCCC)([c]1ccccc1)[c]1ccccc1)([c]1ccccc1)[c]1ccccc1`, the survivor count is, setting by setting: (dose: 50.0 mg/kg/injection, schedule: Q01DX009 (ip), vehicle: saline) 6 of 6; (dose: 100.0 mg/kg/injection, schedule: Q01DX009 (ip), vehicle: saline) 6 of 6.

`CC(=O)Nc1ccc(/C=N/NC(=O)CNC(=O)c2ccccc2)cc1`: the survivor count (dose: 240.0 mg/kg/injection, schedule: Q01DX005 (ip), vehicle: saline with Tween-80) was 6 of 6.

Take `CC(=O)OCN(C)C=O`: under “dose: 1000.0 mg/kg/injection, schedule: Q01DX005 (ip), vehicle: water”, the survivor count was 1 of 5.
